Measurements taken from article PMC13394485.
No constants are given. Whether binding was seen depends on the method and setting. In cells and extracts the contact can be indirect. Some binding calls cover weakened binding; strength is not graded here.

The chains behind the UniProt entries cited, without tags or fusion partners.
UniProt Q9UKV8: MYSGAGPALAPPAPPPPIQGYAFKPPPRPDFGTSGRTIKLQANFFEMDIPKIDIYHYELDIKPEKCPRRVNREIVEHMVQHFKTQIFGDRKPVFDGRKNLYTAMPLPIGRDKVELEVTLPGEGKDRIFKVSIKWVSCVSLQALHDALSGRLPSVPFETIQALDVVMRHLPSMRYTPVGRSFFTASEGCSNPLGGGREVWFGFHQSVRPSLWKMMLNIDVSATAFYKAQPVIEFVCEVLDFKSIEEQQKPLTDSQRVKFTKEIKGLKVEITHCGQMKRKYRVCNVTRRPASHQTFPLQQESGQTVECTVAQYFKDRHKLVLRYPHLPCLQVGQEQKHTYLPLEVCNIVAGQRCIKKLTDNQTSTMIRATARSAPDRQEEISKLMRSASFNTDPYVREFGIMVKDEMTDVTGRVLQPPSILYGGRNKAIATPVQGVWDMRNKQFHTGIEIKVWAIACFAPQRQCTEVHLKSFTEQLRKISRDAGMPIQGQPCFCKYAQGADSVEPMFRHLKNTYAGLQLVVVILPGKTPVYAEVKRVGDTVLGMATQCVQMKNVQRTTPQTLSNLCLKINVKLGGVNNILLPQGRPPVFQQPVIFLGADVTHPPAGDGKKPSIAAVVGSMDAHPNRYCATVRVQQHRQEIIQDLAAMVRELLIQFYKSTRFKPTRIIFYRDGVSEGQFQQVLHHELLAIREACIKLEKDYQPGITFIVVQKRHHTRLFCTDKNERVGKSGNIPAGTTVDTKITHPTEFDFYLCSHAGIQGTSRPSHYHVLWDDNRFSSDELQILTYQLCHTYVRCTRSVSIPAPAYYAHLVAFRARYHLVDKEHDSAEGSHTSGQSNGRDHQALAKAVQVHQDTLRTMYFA
UniProt Q9UPQ9: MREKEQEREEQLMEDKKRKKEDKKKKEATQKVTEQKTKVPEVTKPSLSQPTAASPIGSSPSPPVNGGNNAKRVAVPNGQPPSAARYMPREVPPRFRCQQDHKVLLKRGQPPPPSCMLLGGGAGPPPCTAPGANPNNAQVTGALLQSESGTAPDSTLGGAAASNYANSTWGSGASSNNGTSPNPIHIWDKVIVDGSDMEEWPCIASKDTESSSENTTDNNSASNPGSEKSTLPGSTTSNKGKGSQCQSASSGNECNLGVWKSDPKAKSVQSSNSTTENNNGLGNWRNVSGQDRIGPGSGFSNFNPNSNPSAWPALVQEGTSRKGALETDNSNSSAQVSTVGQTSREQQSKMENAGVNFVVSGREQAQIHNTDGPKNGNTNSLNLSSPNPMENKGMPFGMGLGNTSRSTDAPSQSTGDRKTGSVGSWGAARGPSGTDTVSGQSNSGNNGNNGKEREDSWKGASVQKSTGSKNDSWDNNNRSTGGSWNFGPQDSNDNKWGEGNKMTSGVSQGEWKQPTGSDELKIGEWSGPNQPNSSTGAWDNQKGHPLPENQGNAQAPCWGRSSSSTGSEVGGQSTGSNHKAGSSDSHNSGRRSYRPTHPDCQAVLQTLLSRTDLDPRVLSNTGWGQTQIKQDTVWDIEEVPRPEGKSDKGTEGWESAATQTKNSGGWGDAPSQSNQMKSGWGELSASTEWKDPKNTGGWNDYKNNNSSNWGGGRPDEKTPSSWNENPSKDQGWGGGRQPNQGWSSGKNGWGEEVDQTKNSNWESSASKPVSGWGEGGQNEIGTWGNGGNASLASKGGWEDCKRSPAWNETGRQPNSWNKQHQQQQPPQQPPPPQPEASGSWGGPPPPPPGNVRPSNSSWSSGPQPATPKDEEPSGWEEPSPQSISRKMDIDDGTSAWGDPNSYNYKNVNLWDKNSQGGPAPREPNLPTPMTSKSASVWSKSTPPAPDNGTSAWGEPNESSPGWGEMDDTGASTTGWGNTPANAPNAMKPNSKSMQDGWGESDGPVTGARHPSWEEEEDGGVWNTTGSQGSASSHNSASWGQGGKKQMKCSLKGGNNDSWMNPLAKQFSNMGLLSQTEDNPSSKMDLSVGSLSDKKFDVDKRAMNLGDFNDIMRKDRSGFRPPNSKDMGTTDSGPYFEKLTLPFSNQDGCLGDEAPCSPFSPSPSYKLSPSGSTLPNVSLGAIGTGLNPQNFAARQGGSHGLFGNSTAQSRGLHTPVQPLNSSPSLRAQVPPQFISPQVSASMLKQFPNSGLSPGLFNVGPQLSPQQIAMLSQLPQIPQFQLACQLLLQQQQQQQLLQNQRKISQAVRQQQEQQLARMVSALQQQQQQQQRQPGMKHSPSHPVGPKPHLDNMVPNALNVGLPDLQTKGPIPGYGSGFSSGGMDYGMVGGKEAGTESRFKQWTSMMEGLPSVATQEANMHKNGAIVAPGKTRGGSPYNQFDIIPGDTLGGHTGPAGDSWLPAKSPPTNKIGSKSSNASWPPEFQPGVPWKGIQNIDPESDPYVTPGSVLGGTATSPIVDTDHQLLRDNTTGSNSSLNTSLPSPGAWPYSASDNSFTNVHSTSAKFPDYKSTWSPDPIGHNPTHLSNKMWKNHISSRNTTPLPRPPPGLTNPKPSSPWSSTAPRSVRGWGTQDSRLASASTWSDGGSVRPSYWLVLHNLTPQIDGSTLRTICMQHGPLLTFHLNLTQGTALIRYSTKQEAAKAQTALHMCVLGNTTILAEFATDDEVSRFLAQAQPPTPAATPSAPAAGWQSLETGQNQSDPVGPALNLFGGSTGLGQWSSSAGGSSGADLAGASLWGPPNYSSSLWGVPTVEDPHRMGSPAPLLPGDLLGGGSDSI
UniProt Q8NDV7: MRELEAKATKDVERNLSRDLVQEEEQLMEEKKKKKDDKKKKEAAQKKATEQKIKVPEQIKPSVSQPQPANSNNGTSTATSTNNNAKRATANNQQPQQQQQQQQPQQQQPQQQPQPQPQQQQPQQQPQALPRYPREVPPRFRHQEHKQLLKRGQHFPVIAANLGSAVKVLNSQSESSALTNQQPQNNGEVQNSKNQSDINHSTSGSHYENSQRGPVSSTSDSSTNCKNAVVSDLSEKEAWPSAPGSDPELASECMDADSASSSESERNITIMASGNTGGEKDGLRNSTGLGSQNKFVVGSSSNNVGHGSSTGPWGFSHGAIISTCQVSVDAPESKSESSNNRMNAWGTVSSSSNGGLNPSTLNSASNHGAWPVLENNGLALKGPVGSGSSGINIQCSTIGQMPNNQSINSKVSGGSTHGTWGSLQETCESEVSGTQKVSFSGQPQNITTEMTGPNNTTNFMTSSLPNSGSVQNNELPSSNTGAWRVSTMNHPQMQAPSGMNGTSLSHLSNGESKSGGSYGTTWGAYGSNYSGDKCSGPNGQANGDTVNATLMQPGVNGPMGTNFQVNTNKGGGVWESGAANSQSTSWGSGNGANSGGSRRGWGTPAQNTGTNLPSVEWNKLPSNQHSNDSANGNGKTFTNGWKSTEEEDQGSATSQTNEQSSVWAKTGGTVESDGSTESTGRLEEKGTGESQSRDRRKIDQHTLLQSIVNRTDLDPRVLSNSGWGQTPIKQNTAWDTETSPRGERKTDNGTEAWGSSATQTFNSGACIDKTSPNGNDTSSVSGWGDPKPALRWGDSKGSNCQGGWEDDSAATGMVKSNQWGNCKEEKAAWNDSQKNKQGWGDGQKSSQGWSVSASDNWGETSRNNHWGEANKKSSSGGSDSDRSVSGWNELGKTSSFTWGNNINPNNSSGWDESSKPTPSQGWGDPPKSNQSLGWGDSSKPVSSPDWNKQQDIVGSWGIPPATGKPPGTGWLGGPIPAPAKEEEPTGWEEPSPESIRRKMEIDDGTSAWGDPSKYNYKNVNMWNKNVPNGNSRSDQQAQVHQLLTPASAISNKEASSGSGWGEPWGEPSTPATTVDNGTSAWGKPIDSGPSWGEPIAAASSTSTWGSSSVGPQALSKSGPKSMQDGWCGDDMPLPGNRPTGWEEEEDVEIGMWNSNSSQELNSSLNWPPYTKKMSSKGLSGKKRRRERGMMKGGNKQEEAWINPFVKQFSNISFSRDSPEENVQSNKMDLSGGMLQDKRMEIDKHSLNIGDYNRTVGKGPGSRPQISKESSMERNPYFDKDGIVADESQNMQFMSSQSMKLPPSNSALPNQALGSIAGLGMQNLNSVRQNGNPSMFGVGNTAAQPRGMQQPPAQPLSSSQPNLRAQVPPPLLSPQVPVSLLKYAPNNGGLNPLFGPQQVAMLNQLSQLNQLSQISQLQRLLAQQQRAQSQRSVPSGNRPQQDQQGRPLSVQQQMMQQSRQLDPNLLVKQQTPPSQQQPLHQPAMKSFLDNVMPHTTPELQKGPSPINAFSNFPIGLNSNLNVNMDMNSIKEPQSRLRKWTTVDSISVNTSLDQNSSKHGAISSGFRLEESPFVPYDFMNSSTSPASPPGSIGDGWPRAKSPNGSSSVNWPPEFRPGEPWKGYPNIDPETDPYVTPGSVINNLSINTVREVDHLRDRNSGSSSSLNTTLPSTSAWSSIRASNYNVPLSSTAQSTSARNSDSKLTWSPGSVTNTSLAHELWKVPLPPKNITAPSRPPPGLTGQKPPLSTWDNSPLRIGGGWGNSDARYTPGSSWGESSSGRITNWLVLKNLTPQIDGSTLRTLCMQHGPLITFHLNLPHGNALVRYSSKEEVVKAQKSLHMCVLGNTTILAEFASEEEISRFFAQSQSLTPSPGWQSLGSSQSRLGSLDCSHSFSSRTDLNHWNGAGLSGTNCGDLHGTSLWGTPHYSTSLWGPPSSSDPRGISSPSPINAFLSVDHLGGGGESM

How the values were obtained:
[1] = target: Argonaute 2 (human (endogenous in hSAECs)) (UniProt Q9UKV8); assay: co-IP; endogenous AGO2 precipitated with mouse IgA anti-AGO2 (sc-53521) from hSAEC lysates (Ctrl C4 and LIMD1 KO C2 clones); NP-40 buffer (150 mM NaCl, 50 mM tris-HCl pH 8.0, 0.7% NP-40, 5% glycerol), overnight at 4°C, Protein L magnetic beads; blots for TNRC6A and TNRC6B
[2] = target: Argonaute 2 (human (endogenous in hSAECs)) (UniProt Q9UKV8); assay: proximity ligation; Duolink in situ PLA in fixed, permeabilised hSAECs (Ctrl C4 and LIMD1 KO C2) with mouse anti-AGO2 and rabbit anti-GW182/TNRC6A; foci per cell counted

Substance	binding [1]	binding [2]
trinucleotide repeat-containing 6B (from UniProt Q9UPQ9 1-1833)	binds	–
trinucleotide repeat-containing 6A (from UniProt Q8NDV7 1-1962)	binds	binds
